Three substances from paper PMC12352907 can be followed below.

Chains of the proteins cited; added tags and fusions are not shown.
UniProt O95477: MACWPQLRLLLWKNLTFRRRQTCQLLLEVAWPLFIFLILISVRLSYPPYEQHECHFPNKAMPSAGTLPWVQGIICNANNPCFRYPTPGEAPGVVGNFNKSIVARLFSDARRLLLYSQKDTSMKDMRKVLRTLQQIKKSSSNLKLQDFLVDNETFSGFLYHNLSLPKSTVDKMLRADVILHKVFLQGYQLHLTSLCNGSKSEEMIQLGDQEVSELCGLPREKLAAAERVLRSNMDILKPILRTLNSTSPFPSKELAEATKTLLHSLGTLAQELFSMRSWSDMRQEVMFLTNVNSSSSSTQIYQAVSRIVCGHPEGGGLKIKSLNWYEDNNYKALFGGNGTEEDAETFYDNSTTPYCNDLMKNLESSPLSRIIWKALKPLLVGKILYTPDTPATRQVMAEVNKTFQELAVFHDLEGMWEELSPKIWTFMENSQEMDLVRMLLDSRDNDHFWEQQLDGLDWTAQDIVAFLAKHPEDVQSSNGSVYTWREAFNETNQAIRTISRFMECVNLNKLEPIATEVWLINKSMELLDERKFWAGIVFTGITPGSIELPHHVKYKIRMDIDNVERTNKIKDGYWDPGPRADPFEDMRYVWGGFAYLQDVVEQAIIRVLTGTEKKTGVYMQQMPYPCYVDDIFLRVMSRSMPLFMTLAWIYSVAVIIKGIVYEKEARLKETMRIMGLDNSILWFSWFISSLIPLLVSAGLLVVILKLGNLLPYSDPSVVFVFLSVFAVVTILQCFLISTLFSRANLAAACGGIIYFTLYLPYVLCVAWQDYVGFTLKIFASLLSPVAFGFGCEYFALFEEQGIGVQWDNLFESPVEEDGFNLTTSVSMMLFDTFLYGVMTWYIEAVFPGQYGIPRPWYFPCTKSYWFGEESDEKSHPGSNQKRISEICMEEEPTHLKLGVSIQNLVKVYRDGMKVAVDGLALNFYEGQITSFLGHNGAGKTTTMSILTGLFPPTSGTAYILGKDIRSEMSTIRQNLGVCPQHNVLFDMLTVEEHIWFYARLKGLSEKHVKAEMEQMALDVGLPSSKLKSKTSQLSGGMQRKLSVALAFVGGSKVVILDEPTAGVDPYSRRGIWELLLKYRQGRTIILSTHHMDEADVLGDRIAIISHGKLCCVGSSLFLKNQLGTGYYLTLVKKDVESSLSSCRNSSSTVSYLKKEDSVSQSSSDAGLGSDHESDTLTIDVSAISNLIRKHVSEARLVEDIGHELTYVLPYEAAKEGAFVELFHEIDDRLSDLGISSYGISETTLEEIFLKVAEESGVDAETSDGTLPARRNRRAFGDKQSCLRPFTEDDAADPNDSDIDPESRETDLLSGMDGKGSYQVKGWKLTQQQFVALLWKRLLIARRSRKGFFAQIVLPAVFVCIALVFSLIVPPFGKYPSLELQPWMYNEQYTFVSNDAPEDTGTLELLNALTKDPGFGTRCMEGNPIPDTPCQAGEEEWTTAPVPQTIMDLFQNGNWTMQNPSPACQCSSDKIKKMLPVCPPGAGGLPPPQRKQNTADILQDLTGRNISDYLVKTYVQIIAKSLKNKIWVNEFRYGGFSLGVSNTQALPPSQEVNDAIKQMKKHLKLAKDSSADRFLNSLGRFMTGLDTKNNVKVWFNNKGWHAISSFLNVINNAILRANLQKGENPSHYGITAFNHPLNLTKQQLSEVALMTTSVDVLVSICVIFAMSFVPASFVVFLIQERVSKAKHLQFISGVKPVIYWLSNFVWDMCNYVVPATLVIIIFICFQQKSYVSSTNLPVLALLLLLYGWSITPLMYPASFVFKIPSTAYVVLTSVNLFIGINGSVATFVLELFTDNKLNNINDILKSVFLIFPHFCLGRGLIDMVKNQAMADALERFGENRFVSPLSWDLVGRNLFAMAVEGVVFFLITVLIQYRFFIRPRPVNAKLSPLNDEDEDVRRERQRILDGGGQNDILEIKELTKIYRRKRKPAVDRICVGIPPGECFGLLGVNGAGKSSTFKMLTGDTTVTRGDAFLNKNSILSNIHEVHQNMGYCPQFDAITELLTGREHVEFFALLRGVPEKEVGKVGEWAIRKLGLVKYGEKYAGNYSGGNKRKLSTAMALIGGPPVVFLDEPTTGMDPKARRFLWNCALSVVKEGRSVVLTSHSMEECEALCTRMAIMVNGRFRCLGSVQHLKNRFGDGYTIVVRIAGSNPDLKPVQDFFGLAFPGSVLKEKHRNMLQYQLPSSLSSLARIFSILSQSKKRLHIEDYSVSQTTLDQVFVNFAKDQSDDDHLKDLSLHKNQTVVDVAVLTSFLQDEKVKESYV
UniProt P41233: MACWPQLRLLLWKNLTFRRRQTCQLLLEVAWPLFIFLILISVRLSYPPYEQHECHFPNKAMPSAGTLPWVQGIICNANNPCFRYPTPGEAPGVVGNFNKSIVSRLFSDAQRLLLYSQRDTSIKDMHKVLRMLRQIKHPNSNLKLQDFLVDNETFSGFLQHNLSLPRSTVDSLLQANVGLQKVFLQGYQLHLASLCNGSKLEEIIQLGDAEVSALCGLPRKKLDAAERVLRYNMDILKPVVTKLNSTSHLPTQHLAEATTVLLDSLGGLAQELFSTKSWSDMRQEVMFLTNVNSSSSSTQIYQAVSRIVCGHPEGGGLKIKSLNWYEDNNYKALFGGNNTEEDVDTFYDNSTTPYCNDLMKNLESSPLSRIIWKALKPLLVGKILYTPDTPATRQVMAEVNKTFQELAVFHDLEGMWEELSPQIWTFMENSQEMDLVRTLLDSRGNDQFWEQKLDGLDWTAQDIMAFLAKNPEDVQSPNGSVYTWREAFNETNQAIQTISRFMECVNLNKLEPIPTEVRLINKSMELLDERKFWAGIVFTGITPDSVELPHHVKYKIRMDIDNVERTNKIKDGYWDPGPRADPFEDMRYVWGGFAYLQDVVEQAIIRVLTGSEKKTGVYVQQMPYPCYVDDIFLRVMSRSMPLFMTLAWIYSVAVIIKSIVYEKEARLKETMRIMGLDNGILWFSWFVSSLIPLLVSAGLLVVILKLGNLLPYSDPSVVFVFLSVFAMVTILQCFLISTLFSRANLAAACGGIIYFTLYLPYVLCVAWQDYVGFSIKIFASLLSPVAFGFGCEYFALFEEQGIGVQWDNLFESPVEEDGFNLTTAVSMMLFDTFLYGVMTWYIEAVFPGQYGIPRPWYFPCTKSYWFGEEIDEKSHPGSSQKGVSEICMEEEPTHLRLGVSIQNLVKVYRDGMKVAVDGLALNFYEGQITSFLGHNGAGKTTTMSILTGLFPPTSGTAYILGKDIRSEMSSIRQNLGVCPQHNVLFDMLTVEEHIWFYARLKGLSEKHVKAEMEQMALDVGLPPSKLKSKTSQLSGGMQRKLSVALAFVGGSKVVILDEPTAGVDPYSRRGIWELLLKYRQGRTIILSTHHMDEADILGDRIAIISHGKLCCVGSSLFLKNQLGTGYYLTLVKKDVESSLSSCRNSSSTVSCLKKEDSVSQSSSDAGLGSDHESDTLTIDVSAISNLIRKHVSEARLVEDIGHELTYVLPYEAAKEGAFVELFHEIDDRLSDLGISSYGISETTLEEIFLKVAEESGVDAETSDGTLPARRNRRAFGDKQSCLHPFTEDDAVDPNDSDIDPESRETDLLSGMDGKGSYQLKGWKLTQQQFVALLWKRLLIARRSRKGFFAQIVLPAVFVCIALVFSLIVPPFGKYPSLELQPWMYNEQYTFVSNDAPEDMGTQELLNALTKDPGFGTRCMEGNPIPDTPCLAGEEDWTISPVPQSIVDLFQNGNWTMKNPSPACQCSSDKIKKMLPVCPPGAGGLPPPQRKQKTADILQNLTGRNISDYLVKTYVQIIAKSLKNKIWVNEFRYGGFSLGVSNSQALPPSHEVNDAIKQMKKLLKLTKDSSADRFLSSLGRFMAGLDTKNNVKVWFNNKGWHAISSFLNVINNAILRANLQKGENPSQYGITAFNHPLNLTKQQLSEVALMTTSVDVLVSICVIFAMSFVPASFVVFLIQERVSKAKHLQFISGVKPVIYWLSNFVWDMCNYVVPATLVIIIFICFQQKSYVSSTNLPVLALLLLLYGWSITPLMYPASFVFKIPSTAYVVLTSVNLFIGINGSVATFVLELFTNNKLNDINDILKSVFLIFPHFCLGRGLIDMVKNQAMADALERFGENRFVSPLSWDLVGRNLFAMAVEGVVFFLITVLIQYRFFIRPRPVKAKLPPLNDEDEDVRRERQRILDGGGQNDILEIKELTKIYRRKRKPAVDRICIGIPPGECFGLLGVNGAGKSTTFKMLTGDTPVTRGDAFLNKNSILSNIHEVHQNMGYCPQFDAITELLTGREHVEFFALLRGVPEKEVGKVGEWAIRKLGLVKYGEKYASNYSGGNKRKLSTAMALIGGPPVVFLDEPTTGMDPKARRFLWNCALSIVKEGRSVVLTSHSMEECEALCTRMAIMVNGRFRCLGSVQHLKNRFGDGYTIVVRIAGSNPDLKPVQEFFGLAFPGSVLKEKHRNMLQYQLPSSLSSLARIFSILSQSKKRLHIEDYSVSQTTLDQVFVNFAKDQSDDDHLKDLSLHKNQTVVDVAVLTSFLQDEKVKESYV
UniProt Q6A009: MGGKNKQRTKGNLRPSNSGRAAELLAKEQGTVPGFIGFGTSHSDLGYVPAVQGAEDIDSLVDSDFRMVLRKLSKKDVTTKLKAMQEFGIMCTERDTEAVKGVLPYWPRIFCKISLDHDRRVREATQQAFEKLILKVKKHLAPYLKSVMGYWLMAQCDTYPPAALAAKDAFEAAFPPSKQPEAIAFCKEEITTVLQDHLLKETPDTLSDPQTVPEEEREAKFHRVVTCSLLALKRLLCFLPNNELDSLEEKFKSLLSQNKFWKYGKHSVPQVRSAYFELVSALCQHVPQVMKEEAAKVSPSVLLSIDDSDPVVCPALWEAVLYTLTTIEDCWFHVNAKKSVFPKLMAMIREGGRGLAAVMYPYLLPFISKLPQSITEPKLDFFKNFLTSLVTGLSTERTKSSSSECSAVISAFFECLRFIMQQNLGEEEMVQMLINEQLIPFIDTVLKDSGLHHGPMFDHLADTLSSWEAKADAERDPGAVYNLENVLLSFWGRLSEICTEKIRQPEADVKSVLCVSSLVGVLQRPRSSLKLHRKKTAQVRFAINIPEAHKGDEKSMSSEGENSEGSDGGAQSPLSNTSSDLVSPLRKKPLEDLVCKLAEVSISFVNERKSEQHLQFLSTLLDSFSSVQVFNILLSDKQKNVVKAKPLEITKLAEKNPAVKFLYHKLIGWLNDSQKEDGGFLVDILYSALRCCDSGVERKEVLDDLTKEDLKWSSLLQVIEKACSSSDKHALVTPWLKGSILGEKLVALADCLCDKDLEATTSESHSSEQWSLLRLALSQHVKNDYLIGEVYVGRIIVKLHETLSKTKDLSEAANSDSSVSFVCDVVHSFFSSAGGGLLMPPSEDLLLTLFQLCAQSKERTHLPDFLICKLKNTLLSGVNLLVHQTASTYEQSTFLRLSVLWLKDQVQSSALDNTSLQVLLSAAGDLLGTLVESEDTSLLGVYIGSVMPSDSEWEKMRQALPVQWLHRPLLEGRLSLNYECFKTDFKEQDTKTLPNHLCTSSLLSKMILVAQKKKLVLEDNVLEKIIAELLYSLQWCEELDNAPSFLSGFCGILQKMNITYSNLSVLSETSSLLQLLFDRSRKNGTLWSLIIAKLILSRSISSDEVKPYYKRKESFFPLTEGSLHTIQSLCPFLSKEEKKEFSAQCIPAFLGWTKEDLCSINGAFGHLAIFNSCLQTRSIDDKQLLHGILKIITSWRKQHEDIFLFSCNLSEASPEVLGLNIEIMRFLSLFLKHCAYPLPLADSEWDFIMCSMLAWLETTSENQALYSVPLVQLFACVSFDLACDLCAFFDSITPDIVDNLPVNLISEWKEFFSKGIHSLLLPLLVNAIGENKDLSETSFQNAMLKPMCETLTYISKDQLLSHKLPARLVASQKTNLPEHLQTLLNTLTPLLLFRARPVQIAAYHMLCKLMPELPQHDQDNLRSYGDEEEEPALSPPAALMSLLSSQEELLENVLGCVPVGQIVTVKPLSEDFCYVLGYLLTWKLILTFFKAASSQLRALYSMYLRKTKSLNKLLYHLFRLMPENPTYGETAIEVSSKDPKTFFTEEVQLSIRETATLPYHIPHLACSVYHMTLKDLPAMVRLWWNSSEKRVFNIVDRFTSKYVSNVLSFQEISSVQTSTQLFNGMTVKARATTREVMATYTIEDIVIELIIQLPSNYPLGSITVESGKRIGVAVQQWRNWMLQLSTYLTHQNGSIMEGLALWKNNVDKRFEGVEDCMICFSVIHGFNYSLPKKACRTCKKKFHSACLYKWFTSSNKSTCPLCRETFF

One assay addresses T1, Myc-SRB1 (UniProt Q8WTV0).
T1 sequence: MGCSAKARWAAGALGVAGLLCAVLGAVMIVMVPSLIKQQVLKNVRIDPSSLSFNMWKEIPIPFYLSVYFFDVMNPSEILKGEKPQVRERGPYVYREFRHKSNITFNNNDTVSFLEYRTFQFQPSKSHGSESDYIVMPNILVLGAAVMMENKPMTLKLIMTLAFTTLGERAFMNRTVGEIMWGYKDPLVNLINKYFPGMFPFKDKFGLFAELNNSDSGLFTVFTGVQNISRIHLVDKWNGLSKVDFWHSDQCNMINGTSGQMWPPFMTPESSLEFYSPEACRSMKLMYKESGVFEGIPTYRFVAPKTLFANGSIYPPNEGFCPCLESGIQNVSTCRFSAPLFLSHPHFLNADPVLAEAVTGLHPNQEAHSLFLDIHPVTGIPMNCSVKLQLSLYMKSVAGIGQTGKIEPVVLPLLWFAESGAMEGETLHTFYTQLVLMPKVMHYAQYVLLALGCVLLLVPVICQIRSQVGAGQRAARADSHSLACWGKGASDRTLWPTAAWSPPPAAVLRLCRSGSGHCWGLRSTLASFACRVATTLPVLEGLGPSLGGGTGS
As to the kind of experiment: co-IP; HEK293T cells co-expressing Flag-Listerin with GFP-ABCA1 (WT or truncation mutants), Myc-ABCG1 or Myc-SRB1.

In another assay the target is GFP-ABCA1 (WT) (human) (UniProt O95477). Described as above.
Assay [1] addresses ATP-binding cassette transporter A1 (ABCA1), endogenous in mouse peritoneal macrophages (mouse (endogenous in peritoneal macrophages)) (UniProt P41233). As to the kind of experiment: co-IP; endogenous proteins in primary mouse PMs treated with oxLDL (50 μg/mL) for the indicated durations; an equal amount of nonspecific antibody as negative control.
Assay [2] has the same target. As to the kind of experiment: co-IP; endogenous ABCA1 and HRS in oxLDL-treated PMs, with and without Listerin deficiency; an equal amount of nonspecific antibody as negative control.

These are yes or no findings as the source states them, for the method shown. In cells and extracts the contact can be indirect. Some binding calls cover weakened binding; strength is not graded here. For some of these results: Sequences can lack the tags named with a protein.

Turning to “Flag-Listerin (from UniProt O94822 1-1766) (enzyme)”, the binding result with Myc-SRB1 is “no binding”; with GFP-ABCA1 (WT) (human), “binds”.
Take “Listerin E3 ubiquitin protein ligase 1 (Listerin), endogenous in mouse peritoneal macrophages (from UniProt Q6A009 1-1767) (enzyme)”: in assay [1], the binding entry is given as “binds”.
With “hepatocyte growth factor–regulated tyrosine kinase substrate (HRS), endogenous in mouse peritoneal macrophages (from UniProt Q99LI8 1-775)”, in assay [2], the binding entry is given as “binds”.
